Consider 33 targets from the supplement of paper PMC10849652.

Protein sequences, listed by entry. Tags and fused reporters are not part of them. Lines headed by an entry give the natural chain unless they say otherwise; changes in a name come on top.
UniProt Q96LB3: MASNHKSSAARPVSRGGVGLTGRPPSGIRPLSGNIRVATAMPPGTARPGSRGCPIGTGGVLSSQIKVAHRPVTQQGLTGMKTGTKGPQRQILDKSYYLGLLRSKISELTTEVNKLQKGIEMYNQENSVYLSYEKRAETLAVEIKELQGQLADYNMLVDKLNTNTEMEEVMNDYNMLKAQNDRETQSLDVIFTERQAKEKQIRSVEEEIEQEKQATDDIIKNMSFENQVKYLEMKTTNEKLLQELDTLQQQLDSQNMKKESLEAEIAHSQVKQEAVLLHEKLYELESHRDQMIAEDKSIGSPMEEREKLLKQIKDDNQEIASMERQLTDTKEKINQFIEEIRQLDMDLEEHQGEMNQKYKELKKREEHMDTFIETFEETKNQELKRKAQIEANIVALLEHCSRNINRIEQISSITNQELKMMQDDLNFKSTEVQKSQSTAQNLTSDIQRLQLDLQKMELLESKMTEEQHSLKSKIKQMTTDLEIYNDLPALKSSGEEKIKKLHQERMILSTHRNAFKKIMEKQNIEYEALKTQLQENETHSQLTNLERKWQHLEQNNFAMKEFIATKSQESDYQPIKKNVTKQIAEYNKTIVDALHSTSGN
UniProt Q9Y4L1: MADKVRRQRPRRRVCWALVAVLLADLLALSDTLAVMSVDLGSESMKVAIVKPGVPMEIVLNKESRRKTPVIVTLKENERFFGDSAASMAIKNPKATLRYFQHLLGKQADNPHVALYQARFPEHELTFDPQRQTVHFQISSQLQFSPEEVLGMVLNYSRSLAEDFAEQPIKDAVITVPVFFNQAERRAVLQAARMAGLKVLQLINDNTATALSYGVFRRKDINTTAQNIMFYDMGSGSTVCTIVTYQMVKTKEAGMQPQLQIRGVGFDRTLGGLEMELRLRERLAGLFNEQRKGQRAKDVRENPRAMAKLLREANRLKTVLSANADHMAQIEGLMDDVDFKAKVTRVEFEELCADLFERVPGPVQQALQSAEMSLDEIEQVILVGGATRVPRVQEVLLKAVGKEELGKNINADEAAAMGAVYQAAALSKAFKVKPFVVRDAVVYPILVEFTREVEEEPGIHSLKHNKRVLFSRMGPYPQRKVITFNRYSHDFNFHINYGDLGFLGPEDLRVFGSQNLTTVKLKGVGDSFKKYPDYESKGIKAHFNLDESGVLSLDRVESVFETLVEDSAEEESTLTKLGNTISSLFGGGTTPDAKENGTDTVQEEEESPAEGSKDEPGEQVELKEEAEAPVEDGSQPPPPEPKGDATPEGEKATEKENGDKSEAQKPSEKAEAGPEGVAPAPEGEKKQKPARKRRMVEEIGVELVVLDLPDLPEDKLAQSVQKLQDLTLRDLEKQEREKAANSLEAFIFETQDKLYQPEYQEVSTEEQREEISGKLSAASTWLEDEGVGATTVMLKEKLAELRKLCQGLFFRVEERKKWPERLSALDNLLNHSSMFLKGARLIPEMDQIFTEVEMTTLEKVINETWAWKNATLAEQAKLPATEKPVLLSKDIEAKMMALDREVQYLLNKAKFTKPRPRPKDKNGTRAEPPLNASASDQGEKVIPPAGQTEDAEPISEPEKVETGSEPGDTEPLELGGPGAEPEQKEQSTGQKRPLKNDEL
UniProt P48735: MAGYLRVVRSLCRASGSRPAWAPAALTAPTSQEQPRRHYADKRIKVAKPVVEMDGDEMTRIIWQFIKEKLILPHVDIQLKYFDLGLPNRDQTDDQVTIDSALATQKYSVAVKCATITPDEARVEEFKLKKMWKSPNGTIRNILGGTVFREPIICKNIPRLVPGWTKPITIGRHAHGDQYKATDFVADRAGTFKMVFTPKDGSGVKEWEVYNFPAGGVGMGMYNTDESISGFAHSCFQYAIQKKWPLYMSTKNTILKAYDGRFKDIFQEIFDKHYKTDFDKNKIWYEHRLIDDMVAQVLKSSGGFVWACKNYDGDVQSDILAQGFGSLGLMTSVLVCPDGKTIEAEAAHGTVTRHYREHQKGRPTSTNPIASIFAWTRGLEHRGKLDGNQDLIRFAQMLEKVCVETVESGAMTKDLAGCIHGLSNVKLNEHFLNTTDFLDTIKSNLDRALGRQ
UniProt Q9BT40: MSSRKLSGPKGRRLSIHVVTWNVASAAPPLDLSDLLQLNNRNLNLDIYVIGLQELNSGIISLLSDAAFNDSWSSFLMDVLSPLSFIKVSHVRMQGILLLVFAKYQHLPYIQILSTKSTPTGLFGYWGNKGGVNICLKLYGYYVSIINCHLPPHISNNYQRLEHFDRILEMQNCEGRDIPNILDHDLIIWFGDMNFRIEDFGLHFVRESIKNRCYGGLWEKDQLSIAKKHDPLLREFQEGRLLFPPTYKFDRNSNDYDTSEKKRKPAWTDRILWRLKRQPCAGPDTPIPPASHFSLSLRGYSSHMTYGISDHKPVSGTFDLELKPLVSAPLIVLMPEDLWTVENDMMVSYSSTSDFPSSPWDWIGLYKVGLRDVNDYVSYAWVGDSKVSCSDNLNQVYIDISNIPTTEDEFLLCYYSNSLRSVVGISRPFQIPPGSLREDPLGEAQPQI
UniProt Q8N201, whole entry, looked up: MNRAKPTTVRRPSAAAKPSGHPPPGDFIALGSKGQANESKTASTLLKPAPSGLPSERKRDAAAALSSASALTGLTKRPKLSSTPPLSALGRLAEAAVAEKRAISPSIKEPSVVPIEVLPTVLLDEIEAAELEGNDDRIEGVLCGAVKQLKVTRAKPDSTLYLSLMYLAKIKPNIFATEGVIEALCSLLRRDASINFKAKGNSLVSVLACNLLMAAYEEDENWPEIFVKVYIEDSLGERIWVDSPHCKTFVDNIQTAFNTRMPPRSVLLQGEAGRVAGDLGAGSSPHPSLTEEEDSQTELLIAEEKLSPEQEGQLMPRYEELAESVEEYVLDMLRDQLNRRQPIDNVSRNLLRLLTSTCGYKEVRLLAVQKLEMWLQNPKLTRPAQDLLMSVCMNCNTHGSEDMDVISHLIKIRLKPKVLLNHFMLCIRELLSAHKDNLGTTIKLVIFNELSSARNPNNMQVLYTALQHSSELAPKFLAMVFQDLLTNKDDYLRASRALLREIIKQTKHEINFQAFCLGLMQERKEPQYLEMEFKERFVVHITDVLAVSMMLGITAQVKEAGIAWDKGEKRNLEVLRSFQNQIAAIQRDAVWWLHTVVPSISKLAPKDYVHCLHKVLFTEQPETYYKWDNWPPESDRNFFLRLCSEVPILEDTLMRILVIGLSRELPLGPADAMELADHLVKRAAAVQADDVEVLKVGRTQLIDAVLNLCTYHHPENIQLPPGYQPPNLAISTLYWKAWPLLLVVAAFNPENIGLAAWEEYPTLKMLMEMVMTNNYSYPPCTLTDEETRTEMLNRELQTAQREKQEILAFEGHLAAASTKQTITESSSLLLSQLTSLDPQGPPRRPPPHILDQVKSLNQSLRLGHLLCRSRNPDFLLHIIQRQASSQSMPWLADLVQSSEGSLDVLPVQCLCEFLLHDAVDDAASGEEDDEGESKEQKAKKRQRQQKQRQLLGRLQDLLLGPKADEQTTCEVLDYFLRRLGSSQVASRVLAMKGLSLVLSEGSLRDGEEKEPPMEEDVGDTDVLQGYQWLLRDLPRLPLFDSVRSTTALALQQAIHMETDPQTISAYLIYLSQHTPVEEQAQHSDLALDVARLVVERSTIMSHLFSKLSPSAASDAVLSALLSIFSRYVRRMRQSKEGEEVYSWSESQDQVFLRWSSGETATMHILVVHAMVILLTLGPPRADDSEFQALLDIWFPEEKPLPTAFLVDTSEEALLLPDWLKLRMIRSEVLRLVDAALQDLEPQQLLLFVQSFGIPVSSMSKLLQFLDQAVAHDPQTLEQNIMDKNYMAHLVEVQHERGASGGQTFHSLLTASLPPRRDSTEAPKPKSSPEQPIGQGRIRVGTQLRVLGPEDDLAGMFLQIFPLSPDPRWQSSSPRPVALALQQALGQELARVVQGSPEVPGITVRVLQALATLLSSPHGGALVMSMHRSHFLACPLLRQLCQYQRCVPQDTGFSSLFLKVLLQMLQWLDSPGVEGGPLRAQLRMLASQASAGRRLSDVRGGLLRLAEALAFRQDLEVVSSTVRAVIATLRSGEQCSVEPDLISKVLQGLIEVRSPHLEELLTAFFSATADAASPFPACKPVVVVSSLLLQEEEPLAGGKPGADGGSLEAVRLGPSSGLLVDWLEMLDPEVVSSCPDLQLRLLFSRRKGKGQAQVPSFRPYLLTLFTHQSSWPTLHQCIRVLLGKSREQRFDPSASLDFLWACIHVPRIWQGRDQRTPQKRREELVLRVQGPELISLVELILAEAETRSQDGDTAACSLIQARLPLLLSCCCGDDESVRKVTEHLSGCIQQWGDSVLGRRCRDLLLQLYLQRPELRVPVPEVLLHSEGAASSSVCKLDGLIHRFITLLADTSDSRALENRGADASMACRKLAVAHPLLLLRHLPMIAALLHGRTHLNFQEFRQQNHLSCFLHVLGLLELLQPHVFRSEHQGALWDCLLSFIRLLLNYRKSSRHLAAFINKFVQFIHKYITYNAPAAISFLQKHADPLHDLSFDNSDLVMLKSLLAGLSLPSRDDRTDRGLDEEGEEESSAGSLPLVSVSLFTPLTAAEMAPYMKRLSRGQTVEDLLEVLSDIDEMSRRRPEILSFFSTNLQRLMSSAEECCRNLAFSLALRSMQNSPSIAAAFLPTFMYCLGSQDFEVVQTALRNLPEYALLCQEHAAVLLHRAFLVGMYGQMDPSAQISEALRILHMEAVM
UniProt Q13123, whole entry, looked up: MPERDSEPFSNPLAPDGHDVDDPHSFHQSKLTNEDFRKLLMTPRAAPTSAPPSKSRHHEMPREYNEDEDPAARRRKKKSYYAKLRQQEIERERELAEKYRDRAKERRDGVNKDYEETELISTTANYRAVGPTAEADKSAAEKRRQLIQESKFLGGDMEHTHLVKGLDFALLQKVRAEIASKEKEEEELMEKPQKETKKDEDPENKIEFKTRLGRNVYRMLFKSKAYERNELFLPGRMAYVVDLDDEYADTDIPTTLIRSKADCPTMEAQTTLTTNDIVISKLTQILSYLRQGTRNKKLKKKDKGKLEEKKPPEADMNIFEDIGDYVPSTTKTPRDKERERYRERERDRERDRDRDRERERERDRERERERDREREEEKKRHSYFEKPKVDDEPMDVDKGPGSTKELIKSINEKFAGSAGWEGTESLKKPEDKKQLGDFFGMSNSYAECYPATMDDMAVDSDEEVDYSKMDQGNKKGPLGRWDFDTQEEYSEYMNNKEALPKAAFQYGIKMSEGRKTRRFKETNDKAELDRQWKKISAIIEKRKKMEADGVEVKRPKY
UniProt Q13418: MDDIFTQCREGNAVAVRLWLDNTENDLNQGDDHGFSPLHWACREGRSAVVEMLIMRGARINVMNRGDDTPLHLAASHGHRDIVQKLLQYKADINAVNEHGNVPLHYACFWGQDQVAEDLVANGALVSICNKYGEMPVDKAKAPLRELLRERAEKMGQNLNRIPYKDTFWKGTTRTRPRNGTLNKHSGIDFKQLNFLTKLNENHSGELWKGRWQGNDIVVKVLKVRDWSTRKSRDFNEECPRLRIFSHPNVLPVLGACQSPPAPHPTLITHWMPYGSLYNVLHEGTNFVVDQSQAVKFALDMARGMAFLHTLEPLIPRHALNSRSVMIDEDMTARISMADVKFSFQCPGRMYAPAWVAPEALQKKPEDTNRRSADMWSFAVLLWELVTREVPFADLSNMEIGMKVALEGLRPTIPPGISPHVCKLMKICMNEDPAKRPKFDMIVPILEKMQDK
UniProt O60921: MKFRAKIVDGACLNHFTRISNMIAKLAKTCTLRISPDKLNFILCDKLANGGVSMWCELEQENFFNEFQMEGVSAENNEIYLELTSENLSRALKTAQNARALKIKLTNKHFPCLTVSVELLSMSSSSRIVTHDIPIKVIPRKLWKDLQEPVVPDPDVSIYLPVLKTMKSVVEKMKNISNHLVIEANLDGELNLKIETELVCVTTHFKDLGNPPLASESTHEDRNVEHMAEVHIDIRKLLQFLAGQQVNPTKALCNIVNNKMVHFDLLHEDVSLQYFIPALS
UniProt O43837: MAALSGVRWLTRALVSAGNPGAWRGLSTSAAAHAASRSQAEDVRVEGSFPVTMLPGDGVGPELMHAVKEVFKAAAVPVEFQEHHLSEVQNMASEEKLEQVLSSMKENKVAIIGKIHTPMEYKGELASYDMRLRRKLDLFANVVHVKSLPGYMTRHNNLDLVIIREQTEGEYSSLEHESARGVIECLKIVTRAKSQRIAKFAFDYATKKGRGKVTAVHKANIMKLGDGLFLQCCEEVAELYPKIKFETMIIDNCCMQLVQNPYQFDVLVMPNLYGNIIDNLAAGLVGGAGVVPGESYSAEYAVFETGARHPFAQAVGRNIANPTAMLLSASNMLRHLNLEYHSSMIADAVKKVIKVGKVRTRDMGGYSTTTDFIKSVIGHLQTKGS
UniProt Q01628, whole entry, looked up: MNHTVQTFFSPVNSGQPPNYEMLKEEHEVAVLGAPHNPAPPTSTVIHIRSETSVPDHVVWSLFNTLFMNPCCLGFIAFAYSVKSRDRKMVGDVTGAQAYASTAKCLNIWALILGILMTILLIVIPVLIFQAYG

Some of the results follow.

Compound in one test: Cc1ncc(-c2ccnc(Nc3ccc(S(C)(=O)=O)cc3)n2)n1C(C)C
Briefly: log2 fold change, soluble protein after heating vs DMSO (PISA); higher = thermal stabilisation; K562 lysate, 10 uM; active = over 0.2 and 3.5 SD of the protein, either way, in both replicates (recomputed). An outline of the steps: (§1)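 A 30 min treatment with 10 μM compound was applied to crude K562 extract at 1 mg/mL protein in PBS pH 7.4 with 1 mM MgCl2. Heating for 3 min spanned 48°C-58°C, after which aliquots were pooled, adjusted to 0.5% NP-40 at 4°C and spun at 21,000xg for 90 min. TMTpro 16plex LC-MS/MS of the supernatant, with channel sums equalised, gave values recorded as log-two fold change in thermal stability against solvent controls, from duplicates.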
On to IFT74 (UniProt Q96LB3), for which the log2 fold change was inactive: -0.016.
On to INPP4A (UniProt Q96PE3), for which the log2 fold change was inactive: 0.005.
Same read-out and setting: for HYOU1 (UniProt Q9Y4L1) the value was inactive: -0.007.
For IDH2 (UniProt P48735), the log2 fold change was inactive: 0.01.
With INPP5K (UniProt Q9BT40), the log2 fold change is inactive: -0.049.
In the case of INTS1 (UniProt Q8N201), the log2 fold change is inactive: 0.035.
For the target IK (UniProt Q13123), the log2 fold change is inactive: -0.019.
Still for that read-out and setting: for ILK (UniProt Q13418) the value was inactive: 0; for HUS1 (UniProt O60921), inactive: -0.01.

Compound in another test: Cn1cc(-c2ccc3c(c2)CCN3C(=O)Cc2cccc(C(F)(F)F)c2)c2c(N)ncnc21
The test is described as above. An outline of the steps:
as §1
In the case of IDH3A (UniProt P50213), the log2 fold change is inactive: 0.005.
With IGSF3 (UniProt O75054), the log2 fold change was inactive: 0.066.
On the same count and under the same terms, the value for ILKAP (UniProt Q9H0C8) was inactive: -0.009.
The same measure, in the same setting: the value for ICAM1 (UniProt P05362) was inactive: -0.006; that for IDH3B (UniProt O43837) was inactive: 0.019; that for IGSF8 (UniProt Q969P0) was inactive: 0.034.
Same read-out and setting: the value for ILVBL (UniProt A1L0T0) was inactive: -0.014.
In the case of IDE, A0A3B3ISG5, the log2 fold change is inactive: 0.002.
Take ILF2 (UniProt Q12905): the log2 fold change was inactive: 0.001.
On the same count and under the same terms, the value for HTATIP2 isoform 3 (UniProt Q9BUP3) was inactive: 0.006; that for IGF2BP1 (UniProt Q9NZI8) was inactive: 0.041.
Still for that read-out and setting: for HYOU1 (UniProt J3QL06) the value was inactive: -0.117; for IMPA1 isoform 3 (UniProt P29218), inactive: 0.014.
Same read-out and setting: for IDH1 (UniProt O75874) the value was inactive: 0.019.
Consider HUWE1 (UniProt Q7Z6Z7), for which the log2 fold change is inactive: 0.014.
Same read-out and setting: for HSPA8 (UniProt P11142) the value was inactive: -0.007.
For IL10RB (UniProt Q08334), the log2 fold change is inactive: -0.057.
Still for that read-out and setting: for IDH3G (UniProt P51553) the value was inactive: 0.094; for ICAM5 (UniProt Q9UMF0), inactive: -0.01.
The same measure, in the same setting: the value for IBA57 (UniProt Q5T440) was inactive: 0; that for IGBP1 (UniProt P78318) was inactive: -0.018.
Still for that read-out and setting: for IFI30 (UniProt P13284) the value was inactive: -0.001.
Consider HYPK (UniProt Q9NX55), for which the log2 fold change is inactive: 0.009.
Consider IFITM3 (UniProt Q01628), for which the log2 fold change is inactive: 0.064.
Same read-out and setting: the value for IFT74 (UniProt Q96LB3) was inactive: 0.013.
Take INPP4A (UniProt Q96PE3): the log2 fold change is inactive: 0.123.
In the case of HYOU1 (UniProt Q9Y4L1), the log2 fold change is inactive: 0.005.
On the same count and under the same terms, the value for IDH2 (UniProt P48735) was inactive: 0.064; that for INPP5K (UniProt Q9BT40) was inactive: 0.031; that for INTS1 (UniProt Q8N201) was inactive: 0.028.
On the same count and under the same terms, the value for IK (UniProt Q13123) was inactive: 0.002.
Turning to ILK (UniProt Q13418), the log2 fold change is inactive: 0.014.
Same read-out and setting: for HUS1 (UniProt O60921) the value was inactive: -0.017.

Compound in another test: Cn1cc(CNCC2CCN(c3ncc(C(=O)NO)cn3)CC2)c2ccccc21 [quisinostat]
Described as above. An outline of the steps: as §1
On to IDH3A (UniProt P50213), for which the log2 fold change is inactive: 0.016.
Same read-out and setting: the value for IGSF3 (UniProt O75054) was inactive: -0.021.
Still for that read-out and setting: the value for ILKAP (UniProt Q9H0C8) was inactive: 0.011; that for ICAM1 (UniProt P05362) was inactive: 0.061; that for IDH3B (UniProt O43837) was inactive: 0.018.
Still for that read-out and setting: for IGSF8 (UniProt Q969P0) the value was inactive: -0.077.
With ILVBL (UniProt A1L0T0), the log2 fold change was inactive: 0.082.
Take IDE, A0A3B3ISG5: the log2 fold change was inactive: 0.041.
Still for that read-out and setting: for ILF2 (UniProt Q12905) the value was inactive: -0.002; for HTATIP2 isoform 3 (UniProt Q9BUP3), inactive: -0.07; for IGF2BP1 (UniProt Q9NZI8), inactive: -0.018.
As to HYOU1 (UniProt J3QL06), the log2 fold change is inactive: 0.138.
The same measure, in the same setting: for IMPA1 isoform 3 (UniProt P29218) the value was inactive: 0.002; for IDH1 (UniProt O75874), inactive: 0.009.
On the same count and under the same terms, the value for HUWE1 (UniProt Q7Z6Z7) was inactive: 0.001.
Still for that read-out and setting: for HSPA8 (UniProt P11142) the value was inactive: 0.022; for IL10RB (UniProt Q08334), inactive: 0.002.
Consider IDH3G (UniProt P51553), for which the log2 fold change is inactive: 0.01.
On the same count and under the same terms, the value for ICAM5 (UniProt Q9UMF0) was inactive: -0.022; that for IBA57 (UniProt Q5T440) was inactive: 0.072.
Consider IGBP1 (UniProt P78318), for which the log2 fold change is inactive: -0.019.
Still for that read-out and setting: for IFI30 (UniProt P13284) the value was inactive: -0.146.
Same read-out and setting: for HYPK (UniProt Q9NX55) the value was inactive: 0.085; for IFITM3 (UniProt Q01628), inactive: -0.069.
In the case of IFT74 (UniProt Q96LB3), the log2 fold change is inactive: -0.124.
In the case of INPP4A (UniProt Q96PE3), the log2 fold change was inactive: -0.03.
On the same count and under the same terms, for HYOU1 (UniProt Q9Y4L1) the value was inactive: 0.018; for IDH2 (UniProt P48735), inactive: -0.021.
The same measure, in the same setting: for INPP5K (UniProt Q9BT40) the value was inactive: -0.065.
INTS1 (UniProt Q8N201): the log2 fold change is inactive: -0.01.
On the same count and under the same terms, the value for IK (UniProt Q13123) was inactive: -0.009.
With ILK (UniProt Q13418), the log2 fold change is inactive: -0.076.
Same read-out and setting: the value for HUS1 (UniProt O60921) was inactive: -0.034.
